Assay results: PMC12130528
No constants are given. Whether binding was seen depends on the method and setting. In cells and extracts the contact can be indirect. Some results given as binding are weak or reduced against the parent protein; the word gives no strength.

Sequences of proteins named here, by UniProt entry; tags and fusion partners are left off.
UniProt P49796: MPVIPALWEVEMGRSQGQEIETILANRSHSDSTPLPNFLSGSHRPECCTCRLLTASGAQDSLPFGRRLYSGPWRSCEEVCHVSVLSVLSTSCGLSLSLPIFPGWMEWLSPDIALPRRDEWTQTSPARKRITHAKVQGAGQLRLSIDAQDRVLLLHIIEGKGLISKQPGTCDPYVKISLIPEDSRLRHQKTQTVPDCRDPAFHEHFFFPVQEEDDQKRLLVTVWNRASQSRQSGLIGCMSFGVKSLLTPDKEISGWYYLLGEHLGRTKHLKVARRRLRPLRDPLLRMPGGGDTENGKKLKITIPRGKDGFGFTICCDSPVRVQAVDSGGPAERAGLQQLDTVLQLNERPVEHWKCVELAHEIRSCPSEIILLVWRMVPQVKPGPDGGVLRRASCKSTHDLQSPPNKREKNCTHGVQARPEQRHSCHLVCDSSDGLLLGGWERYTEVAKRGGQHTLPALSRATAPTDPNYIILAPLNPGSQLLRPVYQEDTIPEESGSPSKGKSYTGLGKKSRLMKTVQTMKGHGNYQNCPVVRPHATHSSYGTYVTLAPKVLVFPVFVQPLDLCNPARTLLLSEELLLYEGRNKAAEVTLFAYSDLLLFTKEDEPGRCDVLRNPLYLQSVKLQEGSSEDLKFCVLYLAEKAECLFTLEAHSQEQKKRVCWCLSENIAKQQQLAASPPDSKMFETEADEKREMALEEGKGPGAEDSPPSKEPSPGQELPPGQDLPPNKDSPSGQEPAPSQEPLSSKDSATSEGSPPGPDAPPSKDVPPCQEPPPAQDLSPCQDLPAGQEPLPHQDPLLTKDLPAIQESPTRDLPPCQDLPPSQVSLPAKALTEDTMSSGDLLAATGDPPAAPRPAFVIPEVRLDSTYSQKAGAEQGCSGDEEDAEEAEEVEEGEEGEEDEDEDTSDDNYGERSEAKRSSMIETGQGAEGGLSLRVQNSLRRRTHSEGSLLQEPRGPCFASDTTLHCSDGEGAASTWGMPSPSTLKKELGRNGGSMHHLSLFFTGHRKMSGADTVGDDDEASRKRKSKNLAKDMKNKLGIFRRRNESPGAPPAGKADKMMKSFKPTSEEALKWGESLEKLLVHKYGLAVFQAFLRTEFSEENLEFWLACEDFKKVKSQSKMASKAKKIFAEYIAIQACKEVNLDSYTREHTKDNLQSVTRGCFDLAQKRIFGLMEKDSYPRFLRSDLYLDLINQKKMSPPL

Molecular target: T1, AT-rich interactive domain-containing protein 3B (ARID3B) (UniProt Q8IVW6)
T1 sequence: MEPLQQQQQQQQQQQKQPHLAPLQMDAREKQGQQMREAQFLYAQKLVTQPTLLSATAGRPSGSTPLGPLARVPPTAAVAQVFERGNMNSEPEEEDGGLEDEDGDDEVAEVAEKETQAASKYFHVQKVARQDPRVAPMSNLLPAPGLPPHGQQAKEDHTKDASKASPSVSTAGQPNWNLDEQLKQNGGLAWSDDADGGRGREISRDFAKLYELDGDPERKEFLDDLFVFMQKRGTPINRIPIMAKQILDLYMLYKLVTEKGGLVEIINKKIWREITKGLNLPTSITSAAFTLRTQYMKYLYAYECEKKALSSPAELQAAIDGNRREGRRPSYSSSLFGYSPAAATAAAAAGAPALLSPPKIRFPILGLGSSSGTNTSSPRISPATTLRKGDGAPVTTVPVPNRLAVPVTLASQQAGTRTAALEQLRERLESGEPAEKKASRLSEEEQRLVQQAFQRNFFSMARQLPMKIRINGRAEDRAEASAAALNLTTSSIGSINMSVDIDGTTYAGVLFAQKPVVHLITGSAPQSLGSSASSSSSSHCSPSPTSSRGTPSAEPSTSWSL
Assay: co-IP; SKOV3 and OVCAR8 cell lysates (IP lysis buffer); 5 ug antibody conjugated to magnetic beads; beads washed three times; eluate analysed by Western blot; precipitating antibody not stated

## regulator of G protein signaling 3 (RGS3) (from UniProt P49796 1-1198)
  binding: binds
